Test results: publication PMC6113271
Results are given in words; binding and its absence hold for the method and conditions named. Binding seen in cells or lysates may run through a third protein. Some entries that bind do so weakly or less than the wild type.

The chains behind the UniProt entries cited, without tags or fusion partners.
UniProt Q9JIF0: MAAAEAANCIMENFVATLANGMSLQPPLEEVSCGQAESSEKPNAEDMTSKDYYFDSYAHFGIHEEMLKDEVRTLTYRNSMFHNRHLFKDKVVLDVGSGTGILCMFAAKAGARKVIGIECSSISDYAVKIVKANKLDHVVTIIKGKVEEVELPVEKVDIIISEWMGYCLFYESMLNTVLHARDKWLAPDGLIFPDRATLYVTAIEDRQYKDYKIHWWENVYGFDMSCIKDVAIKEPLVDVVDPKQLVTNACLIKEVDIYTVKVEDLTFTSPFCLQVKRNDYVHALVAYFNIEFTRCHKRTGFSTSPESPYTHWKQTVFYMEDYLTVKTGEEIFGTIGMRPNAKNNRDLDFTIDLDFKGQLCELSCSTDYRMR
UniProt Q04207: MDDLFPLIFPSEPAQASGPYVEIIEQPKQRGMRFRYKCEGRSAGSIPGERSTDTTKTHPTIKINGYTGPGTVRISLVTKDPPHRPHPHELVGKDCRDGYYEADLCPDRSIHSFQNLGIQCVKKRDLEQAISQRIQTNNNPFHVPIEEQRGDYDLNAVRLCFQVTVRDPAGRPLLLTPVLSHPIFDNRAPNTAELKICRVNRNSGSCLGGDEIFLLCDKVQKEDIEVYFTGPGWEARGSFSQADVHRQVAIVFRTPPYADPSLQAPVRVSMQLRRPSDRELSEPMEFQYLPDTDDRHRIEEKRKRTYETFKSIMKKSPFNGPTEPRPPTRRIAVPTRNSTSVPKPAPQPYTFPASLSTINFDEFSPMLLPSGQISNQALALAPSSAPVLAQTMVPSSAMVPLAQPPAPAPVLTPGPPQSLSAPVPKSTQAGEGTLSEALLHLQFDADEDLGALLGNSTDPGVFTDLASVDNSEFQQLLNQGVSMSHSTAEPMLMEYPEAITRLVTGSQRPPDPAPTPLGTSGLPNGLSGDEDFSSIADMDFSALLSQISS

Biological target: Protein arginine methyltransferase 1 (PRMT1) (mouse (endogenous in RAW 264.7)) (UniProt Q9JIF0)
Test: co-IP; RAW 264.7 cells with or without RANKL (100 ng/ml) in the presence of M-CSF (30 ng/ml) for 24 h; non-denaturing lysis buffer (20 mM Tris pH 7.4, 150 mM NaCl, 1% NP-40, 1 mM EDTA, 5% glycerol); 200 μg protein with PRMT1 antibody and protein G agarose, 24 h at 4 °C; immunoblotting

How did the binding turn out when “NF-κB subunit p65 (from UniProt Q04207 1-549)” was run?
Its binding is “binds”.
